Experimental data taken from article PMC5514062.

B1: Adenylyl cyclase type 9 (enzyme, UniProt P51830 1-1353)
chain: MASSPHQQLLHHHSTEVSCDSSGDSNSVRVKINPKQLSSNTHPKHCKYSISSSCSSSGDSGGLPRRVGGGGRLRRQKKLPQLFERASSRWWDPKFDSMNLEEACLERCFPQTQRRFRYALFYVGFACLLWSIYFAVHMKSKVIVMVVPALCFLVVCVGFFLFTFTKLYARHYAWTSLALTLLVFALTLAAQFQVWTPLSGRVDSSNHTLTATPADTCLSQVGSFSICIEVLLLLYTVMQLPLYLSLFLGVVYSVLFETFGYHFRNEDCYPSPGPGALHWELLSRALLHVCIHAIGIHLFVMSQVRSRSTFLKVGQSIMHGKDLEVEKALKERMIHSVMPRIIADDLMKQGDEESENSVKRHATSSPKNRKKKSSIQKAPIAFRPFKMQQIEEVSILFADIVGFTKMSANKSAHALVGLLNDLFGRFDRLCEQTKCEKISTLGDCYYCVAGCPEPRADHAYCCIEMGLGMIKAIEQFCQEKKEMVNMRVGVHTGTVLCGILGMRRFKFDVWSNDVNLANLMEQLGVAGKVHISEATAKYLDDRYEMEDGRVIERLGQSVVADQLKGLKTYLISGQRAKESHCSCAEALLSGFEVIDDSRESSGPRGQGTASPGSVSDLAQTVKTFDNLKTCPSCGITFAPKSEAGAEGGTVQNGCQDEPKTSTKASGGPNSKTQNGLLSPPAEEKLTNSQTSLCEILQEKGRWAGVSLDQSALLPLRFKNIREKTDAHFVDVIKEDSLMKDYFFKPPINQFSLNFLDQELERSYRTSYQEEVIKNSPVKTFASATFSSLLDVFLSTTVFLILSITCFLKYGATATPPPPAALAVFGADLLLEVLSLIVSIRMVFFLEDVMTCTKWLLEWIAGWLPRHCIGAILVSLPALAVYSHITSEFETNIHVTMFTGSAVLVAVVHYCNFCQLSSWMRSSLATIVGAGLLLLLHISLCQDSSIVMSPLDSAQNFSAQRNPCNSSVLQDGRRPASLIGKELILTFFLLLLLVWFLNREFEVSYRLHYHGDVEADLHRTKIQSMRDQADWLLRNIIPYHVAEQLKVSQTYSKNHDSGGVIFASIVNFSEFYEENYEGGKECYRVLNELIGDFDELLSKPDYNSIEKIKTIGATYMAASGLNTAQCQEGGHPQEHLRILFEFAKEMMRVVDDFNNNMLWFNFKLRVGFNHGPLTAGVIGTTKLLYDIWGDTVNIASRMDTTGVECRIQVSEESYRVLSKMGYDFDYRGTVNVKGKGQMKTYLYPKCTDNGVVPQHQLSISPDIRVQVDGSIGRSPTDEIANLVPSVQYSDKASLGSDDSTQAKEARLSSKRSWREPVKAEERFPFGKAIEKDSCEDIGVEEASELSKLNVSKSV
B2: heat shock protein 20 (protein, UniProt Q5EBG6 1-162)
chain: MEIPVPVQPSWLRRASAPLPGFSAPGRLFDQRFGEGLLEAELASLCPAAIAPYYLRAPSVALPTAQVSTDSGYFSVLLDVKHFLPEEISVKVVDDHVEVHARHEERPDEHGFIAREFHRRYRLPPGVDPAAVTSALSPEGVLSIQATPASAQAQLPSPPAAK

Tests used:
[1] = molecular target: Yotiao (mouse (endogenous in heart)); test: co-IP; IP-AC assay: WT or AC9-/- mouse heart extracts (also SAN, LV, RA homogenates) immunoprecipitated with anti-Yotiao or anti-Hsp20 (pre-immune or IgG control); associated AC activity stimulated with 300 nM Gαs and measured
[2] = molecular target: Yotiao (mouse (endogenous in heart)); test: co-IP; WT and AC9-/- mouse heart extracts immunoprecipitated with pre-immune or anti-Yotiao, western blot with anti-AC9
[3] = molecular target: Yotiao (mouse (endogenous in heart)); test: co-IP; mouse heart; Supplemental Fig. S4; which protein was precipitated is not given

Row | binding [1] | binding [2] | binding [3] | Binder
1 | binds | binds |  | B1
2 |  |  | no binding | B2

Results are given in words; binding and its absence hold for the method and conditions named. In cells and extracts the contact can be indirect. For part of these data: Binding calls can cover weak binding; strength is not graded here.
